Drawing on publication doi:10.1101/2022.08.12.503154, this text covers binding for three substances.

Sequences of proteins named here, by UniProt entry; tags and fusion partners are left off. A change or cut given only in a name is not applied to a line headed by its entry. Residues count along the entry.
UniProt P08195, residues 102-630: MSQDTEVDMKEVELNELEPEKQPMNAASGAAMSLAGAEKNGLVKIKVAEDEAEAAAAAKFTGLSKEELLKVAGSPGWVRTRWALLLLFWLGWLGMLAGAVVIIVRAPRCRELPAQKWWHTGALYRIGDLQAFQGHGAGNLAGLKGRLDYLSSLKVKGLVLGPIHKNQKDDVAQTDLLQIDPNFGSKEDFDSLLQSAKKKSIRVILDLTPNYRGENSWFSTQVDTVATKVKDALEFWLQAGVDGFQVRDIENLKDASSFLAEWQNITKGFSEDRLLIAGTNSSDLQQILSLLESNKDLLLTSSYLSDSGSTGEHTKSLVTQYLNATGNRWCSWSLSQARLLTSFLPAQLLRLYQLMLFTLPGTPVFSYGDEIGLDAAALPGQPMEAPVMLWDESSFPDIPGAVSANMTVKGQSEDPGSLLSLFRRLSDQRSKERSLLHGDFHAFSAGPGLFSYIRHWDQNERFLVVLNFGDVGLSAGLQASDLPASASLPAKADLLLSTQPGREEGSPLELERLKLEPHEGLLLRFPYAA
UniProt P05556: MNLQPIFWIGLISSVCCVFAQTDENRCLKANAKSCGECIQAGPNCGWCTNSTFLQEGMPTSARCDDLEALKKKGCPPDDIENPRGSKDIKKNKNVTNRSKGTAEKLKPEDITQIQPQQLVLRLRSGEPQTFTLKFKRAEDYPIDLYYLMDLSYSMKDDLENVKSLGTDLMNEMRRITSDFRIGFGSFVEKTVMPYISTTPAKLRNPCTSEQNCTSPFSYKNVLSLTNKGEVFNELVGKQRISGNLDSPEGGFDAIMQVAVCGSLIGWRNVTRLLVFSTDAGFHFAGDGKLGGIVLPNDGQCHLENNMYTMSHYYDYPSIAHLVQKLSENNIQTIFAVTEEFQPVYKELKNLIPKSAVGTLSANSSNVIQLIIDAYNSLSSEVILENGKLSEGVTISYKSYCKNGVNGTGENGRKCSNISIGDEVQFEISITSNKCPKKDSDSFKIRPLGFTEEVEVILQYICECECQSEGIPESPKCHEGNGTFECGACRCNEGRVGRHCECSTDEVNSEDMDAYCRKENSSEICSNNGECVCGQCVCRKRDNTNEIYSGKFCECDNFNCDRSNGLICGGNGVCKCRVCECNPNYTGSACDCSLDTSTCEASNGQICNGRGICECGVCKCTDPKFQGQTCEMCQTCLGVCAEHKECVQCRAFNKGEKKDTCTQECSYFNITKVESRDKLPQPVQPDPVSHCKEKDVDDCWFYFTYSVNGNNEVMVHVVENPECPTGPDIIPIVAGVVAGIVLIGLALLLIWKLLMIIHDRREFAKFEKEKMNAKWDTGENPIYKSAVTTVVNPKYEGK

Assay [1] deals with galectin-3 (human (endogenous in A549 and human lung tissue)) (UniProt P17931). The assay can be described thus: proximity ligation.
Assay [2] shares this target. Nature of the assay: co-IP.
In assay [3] the target is CD98 heavy chain (CD98hc) (human (endogenous in A549 and human lung tissue)) (UniProt P08195). Nature of the assay: co-IP.

These are yes or no findings as the source states them, for the method shown. In cells and extracts the contact can be indirect. Some binding calls cover weakened binding; strength is not graded here.

With “CD98 heavy chain (CD98hc) (from UniProt P08195 1-529)”, the binding result in assay [1] and in assay [2] was “binds” each time. On to galectin-3 (from UniProt P17931 1-250), for which the binding result in assay [3] is “binds”.

As for “β1-integrin (from UniProt P05556 21-798)”, the binding entry in assay [1] and in assay [2] was “binds” in each case.
